Source: publication PMC11255314
Results are given in words; binding and its absence hold for the method and conditions named. Binding seen in cells or lysates may run through a third protein. Some binding calls cover weakened binding; strength is not graded here. For some of these results: Tags and fused reporters may be left off the sequences shown.

Chains of the proteins cited; added tags and fusions are not shown.
UniProt Q9C0C2: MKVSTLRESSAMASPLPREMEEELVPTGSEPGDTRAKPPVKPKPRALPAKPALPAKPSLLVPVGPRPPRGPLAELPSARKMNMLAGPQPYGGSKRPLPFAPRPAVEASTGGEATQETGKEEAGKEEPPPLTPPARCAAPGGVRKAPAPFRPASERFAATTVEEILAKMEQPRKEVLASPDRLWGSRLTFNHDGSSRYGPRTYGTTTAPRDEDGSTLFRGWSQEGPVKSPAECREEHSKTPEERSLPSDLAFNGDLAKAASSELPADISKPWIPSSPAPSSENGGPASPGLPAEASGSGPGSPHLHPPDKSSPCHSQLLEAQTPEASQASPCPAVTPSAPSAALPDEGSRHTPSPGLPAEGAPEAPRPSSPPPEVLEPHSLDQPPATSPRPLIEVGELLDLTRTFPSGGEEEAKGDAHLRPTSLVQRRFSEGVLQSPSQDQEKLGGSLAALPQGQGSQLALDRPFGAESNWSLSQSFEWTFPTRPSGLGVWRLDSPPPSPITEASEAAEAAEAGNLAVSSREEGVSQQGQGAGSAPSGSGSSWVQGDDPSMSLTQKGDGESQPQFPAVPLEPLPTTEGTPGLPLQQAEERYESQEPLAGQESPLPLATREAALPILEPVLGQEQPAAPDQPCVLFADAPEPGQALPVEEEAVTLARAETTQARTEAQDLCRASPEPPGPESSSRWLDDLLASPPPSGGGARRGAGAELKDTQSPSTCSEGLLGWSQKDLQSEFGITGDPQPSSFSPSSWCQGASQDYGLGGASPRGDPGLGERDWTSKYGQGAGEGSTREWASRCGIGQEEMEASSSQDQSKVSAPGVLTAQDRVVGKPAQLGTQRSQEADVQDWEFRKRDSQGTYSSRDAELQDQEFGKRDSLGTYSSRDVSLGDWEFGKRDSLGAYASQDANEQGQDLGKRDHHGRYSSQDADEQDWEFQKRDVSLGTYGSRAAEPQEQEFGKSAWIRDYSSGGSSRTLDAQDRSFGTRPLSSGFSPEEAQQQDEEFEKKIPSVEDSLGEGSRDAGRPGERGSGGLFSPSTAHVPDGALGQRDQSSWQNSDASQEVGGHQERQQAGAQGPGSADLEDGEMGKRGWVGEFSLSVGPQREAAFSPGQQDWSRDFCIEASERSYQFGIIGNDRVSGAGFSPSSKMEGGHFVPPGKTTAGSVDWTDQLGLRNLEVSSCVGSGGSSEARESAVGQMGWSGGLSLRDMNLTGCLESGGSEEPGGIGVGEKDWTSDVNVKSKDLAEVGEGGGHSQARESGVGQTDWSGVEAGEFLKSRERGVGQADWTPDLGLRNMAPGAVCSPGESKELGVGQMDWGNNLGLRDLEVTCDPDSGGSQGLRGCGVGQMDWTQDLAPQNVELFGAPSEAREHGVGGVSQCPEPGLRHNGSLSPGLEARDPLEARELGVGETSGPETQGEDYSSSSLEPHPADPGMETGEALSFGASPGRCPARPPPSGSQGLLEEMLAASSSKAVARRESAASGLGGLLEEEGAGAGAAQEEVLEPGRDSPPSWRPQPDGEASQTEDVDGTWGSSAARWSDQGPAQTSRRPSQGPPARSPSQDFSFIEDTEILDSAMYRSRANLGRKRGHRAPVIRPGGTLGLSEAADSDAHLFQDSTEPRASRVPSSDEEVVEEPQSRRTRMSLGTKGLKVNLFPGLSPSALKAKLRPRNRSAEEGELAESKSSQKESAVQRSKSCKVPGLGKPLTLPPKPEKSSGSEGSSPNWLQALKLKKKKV
UniProt P19474: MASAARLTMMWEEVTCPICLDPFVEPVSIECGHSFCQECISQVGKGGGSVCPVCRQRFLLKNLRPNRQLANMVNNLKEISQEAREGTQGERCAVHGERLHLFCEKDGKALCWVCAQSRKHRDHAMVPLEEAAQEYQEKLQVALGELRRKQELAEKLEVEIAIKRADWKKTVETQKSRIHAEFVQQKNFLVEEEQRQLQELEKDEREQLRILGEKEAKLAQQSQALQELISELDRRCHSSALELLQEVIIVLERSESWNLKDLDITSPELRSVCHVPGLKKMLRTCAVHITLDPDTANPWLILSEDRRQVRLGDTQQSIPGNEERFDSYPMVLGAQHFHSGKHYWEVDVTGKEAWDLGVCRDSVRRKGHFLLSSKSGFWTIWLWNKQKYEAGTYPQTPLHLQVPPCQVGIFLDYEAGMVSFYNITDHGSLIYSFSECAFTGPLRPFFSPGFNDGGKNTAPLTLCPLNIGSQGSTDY

How the values were obtained:
[1] = target: T1, Myc-CNOT4 truncated mutant, RRM domain (UniProt O95628); assay: co-IP; HEK293T cells transfected with both tagged partners (full-length or truncated); lysates immunoprecipitated with anti-Flag or anti-Myc antibodies, WB
T1 sequence: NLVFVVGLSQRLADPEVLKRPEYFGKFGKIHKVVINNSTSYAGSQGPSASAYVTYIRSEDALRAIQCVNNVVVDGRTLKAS

[2] = target: T2, Myc-CNOT4 (CCR4-NOT transcription complex subunit 4), full length (UniProt O95628); assay: as above
T2 sequence: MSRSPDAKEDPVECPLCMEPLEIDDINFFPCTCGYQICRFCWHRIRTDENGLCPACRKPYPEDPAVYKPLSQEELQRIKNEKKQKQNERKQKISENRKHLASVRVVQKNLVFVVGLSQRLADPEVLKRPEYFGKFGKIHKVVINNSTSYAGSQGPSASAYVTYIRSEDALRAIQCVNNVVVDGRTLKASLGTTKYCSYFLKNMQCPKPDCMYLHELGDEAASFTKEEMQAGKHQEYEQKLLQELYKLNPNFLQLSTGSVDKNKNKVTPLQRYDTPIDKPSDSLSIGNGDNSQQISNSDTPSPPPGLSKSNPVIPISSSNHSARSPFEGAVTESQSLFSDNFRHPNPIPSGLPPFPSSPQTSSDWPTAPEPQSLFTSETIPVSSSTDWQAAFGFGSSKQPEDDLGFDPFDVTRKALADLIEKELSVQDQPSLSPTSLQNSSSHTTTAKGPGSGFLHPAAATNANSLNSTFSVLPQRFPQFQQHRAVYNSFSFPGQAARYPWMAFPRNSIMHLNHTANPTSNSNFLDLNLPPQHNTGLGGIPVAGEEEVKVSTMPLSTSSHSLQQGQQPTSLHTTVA

[3] = target: Flag-TNKS1BP1 (tankyrasel binding protein 1) (UniProt Q9C0C2); assay: co-IP; HEK293T cells transfected with Flag-TNKS1BP1 or Myc-CNOT4 plasmids only; lysates immunoprecipitated with anti-Flag or anti-Myc antibodies, immunoblotting for the E3 ligases
[4] = target: T2, Myc-CNOT4 (CCR4-NOT transcription complex subunit 4), full length; assay: as above
[5] = target: T3, CNOT4, endogenous in HCC cells (not stated (endogenous in HCC cells, line not named)) (UniProt O95628); assay: co-IP; endogenous co-IP in HCC cells
T3 sequence: T2 sequence

[6] = target: TNKS1BP1, endogenous in HCC cells (not stated (endogenous in HCC cells, line not named)) (UniProt Q9C0C2); assay: co-IP; endogenous co-IP in HCC cells

Q: Which binding [1] does the source give for “Flag-TRIM21, full length (from UniProt P19474 1-475)” here?
A: binds

Q: What about the binding [2] of the same molecule?
A: binds

Q: Which results are given for “TRIM21 (tripartite motif containing 21) in HEK293T lysate (from UniProt P19474 1-475)”?
A: binding [3]: binds; binding [4]: binds

Q: What does the source list for “TRIM21, endogenous in HCC cells (from UniProt P19474 1-475)”?
A: binding [5]: binds; binding [6]: binds

B1: TRIM33 in HEK293T lysate (protein, UniProt Q9UPN9 1-1127)
chain: MAENKGGGEAESGGGGSGSAPVTAGAAGPAAQEAEPPLTAVLVEEEEEEGGRAGAEGGAAGPDDGGVAAASSGSAQAASSPAASVGTGVAGGAVSTPAPAPASAPAPGPSAGPPPGPPASLLDTCAVCQQSLQSRREAEPKLLPCLHSFCLRCLPEPERQLSVPIPGGSNGDIQQVGVIRCPVCRQECRQIDLVDNYFVKDTSEAPSSSDEKSEQVCTSCEDNASAVGFCVECGEWLCKTCIEAHQRVKFTKDHLIRKKEDVSESVGASGQRPVFCPVHKQEQLKLFCETCDRLTCRDCQLLEHKEHRYQFLEEAFQNQKGAIENLLAKLLEKKNYVHFAATQVQNRIKEVNETNKRVEQEIKVAIFTLINEINKKGKSLLQQLENVTKERQMKLLQQQNDITGLSRQVKHVMNFTNWAIASGSSTALLYSKRLITFQLRHILKARCDPVPAANGAIRFHCDPTFWAKNVVNLGNLVIESKPAPGYTPNVVVGQVPPGTNHISKTPGQINLAQLRLQHMQQQVYAQKHQQLQQMRMQQPPAPVPTTTTTTQQHPRQAAPQMLQQQPPRLISVQTMQRGNMNCGAFQAHQMRLAQNAARIPGIPRHSGPQYSMMQPHLQRQHSNPGHAGPFPVVSVHNTTINPTSPTTATMANANRGPTSPSVTAIELIPSVTNPENLPSLPDIPPIQLEDAGSSSLDNLLSRYISGSHLPPQPTSTMNPSPGPSALSPGSSGLSNSHTPVRPPSTSSTGSRGSCGSSGRTAEKTSLSFKSDQVKVKQEPGTEDEICSFSGGVKQEKTEDGRRSACMLSSPESSLTPPLSTNLHLESELDALASLENHVKIEPADMNESCKQSGLSSLVNGKSPIRSLMHRSARIGGDGNNKDDDPNEDWCAVCQNGGDLLCCEKCPKVFHLTCHVPTLLSFPSGDWICTFCRDIGKPEVEYDCDNLQHSKKGKTAQGLSPVDQRKCERLLLYLYCHELSIEFQEPVPASIPNYYKIIKKPMDLSTVKKKLQKKHSQHYQIPDDFVADVRLIFKNCERFNEMMKVVQVYADTQEINLKADSEVAQAGKAVALYFEDKLTEIYSDRTFAPLPEFEQEEDDGEVTEDSDEDFIQPRRKRLKSDERPVHIK
Q: How did the binding [4] turn out when B1 was run?
A: binds
